According to paper PMC6954211:
Where a chain is given by its changes, count along the chain named. Results are given in words; binding and its absence hold for the method and conditions named. Some entries that bind do so weakly or less than the wild type. Sequences can lack the tags named with a protein.

Sequences of proteins named here, by UniProt entry; tags and fusion partners are left off. Residues count along the entry.
UniProt Q9M364, residues 875-993: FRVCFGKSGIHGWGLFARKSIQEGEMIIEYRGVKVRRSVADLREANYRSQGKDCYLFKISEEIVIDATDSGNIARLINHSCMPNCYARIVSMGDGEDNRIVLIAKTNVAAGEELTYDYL

Tests used:
[1] = molecular target: T1, GST-PHD (PHD finger of Arabidopsis SIZ1 fused to GST) (Arabidopsis) (UniProt Q680Q4); test: pull-down; 1 µg GST-PHD or GST-PHD(C162S) and 1 µg MBP-ATXSET incubated overnight in 300 µL peptide-binding buffer (50 mM Tris-HCl pH 7.5, 150 mM NaCl, 0.1% NP-40); pulled down with glutathione Sepharose beads; blot with anti-MBP; both purified
T1 sequence: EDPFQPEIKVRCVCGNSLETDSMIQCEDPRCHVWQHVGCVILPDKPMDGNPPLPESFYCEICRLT

[2] = molecular target: T2, GST-PHD(C162S) (Arabidopsis) (UniProt Q680Q4); test: as above
T2 sequence: T1 sequence with C59S

- binding [1]: binds
- binding [2]: binds
Substance: MBP-ATX3SET (SET domain of ATX3 fused with maltose-binding protein) (from UniProt Q9M364 875-993) (domain or fragment)
